Assay results as given in the supplement of paper PMC8256030.
Several values for one entry are separate records, joined by “and”; a condition that tells them apart may be missing. Equal entries are not always repeated. This is one part of the list. Single values are uncertain here, since repeats match poorly.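 HEK293T cells were given each compound shortly before transfection with a reporter in which red mCherry is followed by the SARS-CoV-2 frameshift element and then GFP in the −1 frame, so GFP appears only after frameshifting.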

Columns and labels:
[1] = system: SARS-CoV-2 -1 PRF reporter mCherry-FSE-GFP(-1); experiment: mCherry (red) intensity as percent of control; higher = higher upstream reporter expression; conditions: 10 µM; 24 h; HEK293T
[2] = system: SARS-CoV-2 -1 PRF reporter mCherry-FSE-GFP(-1); experiment: percent effect, decrease of GFP/mCherry ratio (-1 PRF reporter) relative to controls; higher = stronger frameshift inhibition; conditions: 10 µM; 24 h; HEK293T

Row | Compound | mCherry [1] | percent effect [2]
1 | CC(=O)O[C@H]1C(=O)[C@@]2(C)[C@H]([C@H](OC(=O)c3ccccc3)[C@]3(O)C[C@H](OC(=O)[C@H](O)[C@@H](NC(=O)c4ccccc4)c4ccccc4)C(C)=C1C3(C)C)[C@]1(OC(C)=O)CO[C@@H]1C[C@@H]2O [paclitaxel] | 233% | -25.8%
2 | CN(C)C(=O)Cn1cc(-c2nc([C@@](C)(c3ccc(-c4cnc(N)nc4)cc3)C3CC3)no2)cn1 | 76.8% | -2.53%
3 | CC[C@]1(O)C[C@H]2CN(CCc3c([nH]c4ccccc34)[C@@](C(=O)OC)(c3cc4c(cc3OC)N(C=O)[C@H]3[C@@](O)(C(=O)OC)[C@H](OC(C)=O)[C@]5(CC)C=CCN6CC[C@]43[C@@H]65)C2)C1 [Vincristine] | 19.6% | -10.4%
4 | CC(COc1ccccc1Cc1ccccc1)N1CCCCC1 (stereo not given) [benproperine] | 105% | -0.315%
5 | Cc1ccc(Cl)c(Nc2ccccc2C(=O)O)c1Cl | 104% | 2.2%
6 | CC[N+]1(CC)CCC(=C(c2ccccc2)c2ccccc2)C1C (stereo not given) [prifinium bromide] | 92.4% | 1.51%
7 | COC(=O)[C@H](Cc1ccccc1)NC(=O)[C@@H](N)CC(=O)O | 78.9% | -2.49%
8 | Cc1cccc(C)c1NC(=O)c1cc(S(N)(=O)=O)c(Cl)cc1O [xipamide] | 108% | -11.5%
9 | CCCCCCCCCCCCCCCCNc1ccc(C(=O)O)cc1 [cetaben] | 69.7% | -10.8%
10 | CC(C)n1c(/C=C/C(O)CC(O)CC(=O)O)c(-c2ccc(F)cc2)c2ccccc21 (stereo not given) [Fluvastatin] | 132% | -0.601%
11 | COc1cc(/C=C/C(=O)N2CCCCCCC2)cc(OC)c1OC [cinoctramide] | 94.8% | -0.878%
12 | CC(=O)Nc1nnc(S(N)(=O)=O)s1 [acetazolamide] | 114% | -0.64%
13 | CN1N=C2CCN(C(=O)[C@@H](COCc3ccccc3)NC(=O)C(C)(C)N)C[C@@]2(Cc2ccccc2)C1=O [capromorelin] | 83.9% | -2.36%
14 | C[C@H]1COc2c(C3(N)CC3)c(F)cc3c(=O)c(C(=O)O)cn1c23 [Pazufloxacin] | 92.3% | 0.747%
15 | CC(NNC(=O)c1ccccc1)c1ccccc1 (stereo not given) [benmoxin] | 71.5% | -14.2%
16 | CC(C)C[C@H](NC(=O)CNC(=O)[C@H](Cc1ccc(O)cc1)NC(=O)[C@H](CO)NC(=O)[C@H](Cc1c[nH]c2ccccc12)NC(=O)[C@H](Cc1cnc[nH]1)NC(=O)[C@@H]1CCC(=O)N1)C(=O)N[C@@H](CCCNC(=N)N)C(=O)N1CCC[C@H]1C(=O)NCC(N)=O [gonadorelin] | 109% | 3.22%
17 | COc1cc(C)c2c(Oc3cccc(C(F)(F)F)c3)c(OC)cc(NC(C)CCCN)c2n1 (stereo not given) [tafenoquine] | 97.4% | -15.8%
18 | COc1ccccc1OCCOCCOCCN1CCCCC1 [guaiapate] | 94.7% | -3.54%
19 | Cc1cn([C@H]2C=C[C@@H](CO)O2)c(=O)[nH]c1=O [stavudine] | 107% | -4.01%
20 | C[S+](CC[C@H](N)C(=O)[O-])C[C@H]1O[C@@H](n2cnc3c(N)ncnc32)[C@H](O)[C@@H]1O (stereo not given in full) [S-Adenosylmethionine] | 85.4% | -0.171%
21 | O=C(O)C1CSCN1 (stereo not given) [timonacic] | 114% | -2.71%
22 | O=C(CCn1cnc2c(=O)[nH]cnc21)Nc1ccc(C(=O)O)cc1 [leteprinim] | 120% | -4.04%
23 | CCCC(=O)OCOC(=O)C1=C(C)NC(C)=C(C(=O)OC)C1c1cccc(Cl)c1Cl (stereo not given) [clevidipine] | 105% | -2.31%
24 | CC(=O)[C@H]1CC[C@H]2[C@@H]3CC=C4C[C@@H](O)CC[C@]4(C)[C@H]3CC[C@]12C [pregnenolone] | 101% and 84.4% | 0.0203% and -3.47%
25 | O=C(O)Cc1csc(-c2ccc(Cl)cc2)n1 [fenclozic acid] | 106% | -2.03%
26 | CNCCC=C1c2ccccc2CCc2ccccc21 [nortriptyline] | 133% | -8.38%
27 | NCCCC(O)(P(=O)(O)O)P(=O)(O)O [alendronic acid] | 48.6% | -8.78%
28 | CCC1(c2c[nH]cn2)Cc2ccccc2C1 [atipamezole] | 69.3% | -3.73%
29 | CCCCCCCCCCOc1cc2c(O)c(C(=O)OCC)cnc2cc1OCC [decoquinate] | 106% | -5.57%
30 | O=C(O)c1cc(=O)c2c(OCC(O)COc3cccc4oc(C(=O)O)cc(=O)c34)cccc2o1 [cromoglicic acid] | 100% | -4.83%

In another format: results already given.
COc1cc(C)c2c(Oc3cccc(C(F)(F)F)c3)c(OC)cc(NC(C)CCCN)c2n1 (stereo not given) [tafenoquine]
  mCherry [1]: 97.4%
  percent effect [2]: -15.8%
Cc1cn([C@H]2C=C[C@@H](CO)O2)c(=O)[nH]c1=O [stavudine]
  mCherry [1]: 107%
  percent effect [2]: -4.01%
